Results on 18 compounds are retold here after PubChem BioAssay AID2685 (National Center for Advancing Translational Sciences (NCATS), 2010).

Some of the results follow. These are further read-outs of the screen, such as a control signal, another cell line or another target. No call is given for them. Most of these compounds were active or inconclusive in the main read-out, so they are no random draw. Potencies come from curve fits of mixed quality, noted in brackets.

This assay is described as follows: qHTS Assay for Lipid Storage Modulators in Drosophila S3 Cells.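 As to cell number change: cells counted by Cell Tracker Red CMTPX staining in the red channel.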 As to conditions: BODIPY lipid droplet fluorescence, 18-24 h; for cell number change: measured here: cell count max response, cells fed with added oleic acid. The essentials:
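Drosophila S3 cells loaded with oleic acid (400 uM, as added) and compounds at several concentrations; lipid droplets imaged by 488-nm laser-scanning cytometry, 500–530 nm intensity and object ratio to cell channel. Percent activity normalized to 20 uM Triacsin C.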
On the technique in general: In qHTS, concentration-response curves come from the screen itself.

[1] abbreviates: measured here: lipid fluorescence (Fed channel) AC50, cells fed with added oleic acid.
Setting [2] is: measured here: cell number channel AC50, cells fed with added oleic acid.

`NS(=O)(=O)c1ccc(NC(=O)COc2cccc3ccccc23)cc1`: the cell number change stood at 14%. In addition, under setting [1], the AC50 is 16.4 µM [rising, single point].
Consider `CCN(CC)c1ccc(/C=C2/C(=O)c3ccc(C(=O)O)cc3C2=O)cc1`, for which the cell number change is 2.9%. Moreover, under setting [2], the AC50 is 6.51 µM [falling, single point]. Moreover, the AC50 under setting [1] is 5.8 µM [falling, full curve].
Take `COc1ccc(C2(CNC(=O)c3ccc(N)cc3)CCCC2)cc1`: the cell number change was 4.74%.
As to `COc1ccccc1CCN=C(N)NS(=O)(=O)c1cc(F)ccc1F`, the cell number change turned out to be 24.5%. Besides, under setting [1], the AC50 was 35.5 µM [rising, single point].
On to `COC(=O)c1c(NS(=O)(=O)c2ccc3ccccc3c2)sc2c1CCCC2`, for which the AC50 runs as follows: under setting [2], 0.58 µM [rising, single point]; under setting [1], 8.2 µM [rising, partial curve].
With `O=C(Nc1nccs1)C1CCCN(S(=O)(=O)c2cccc3cccnc23)C1` (stereo not drawn), the cell number change is -18.3%. Moreover, the AC50 under setting [1] is 3.26 µM [rising, full curve].
For the compound `Cc1csc(NC(=O)CN2C(=O)COc3ccc(Cl)cc32)n1`, the cell number change is -15.8%.
With `C/C(CC(=O)Nc1ccccn1)=N\NC(=O)c1ccncc1`, the cell number change is 0.901%. The concentration at half-maximal activity (AC50) under setting [1] was 29.1 µM [falling, single point].
As for `COc1ccccc1N1CCN(S(=O)(=O)c2cnc[nH]2)CC1`, the cell number change turned out to be 46.6%. For the same compound, the concentration at half-maximal activity (AC50) under setting [2] is 32.6 µM [rising, single point]. Also, the concentration at half-maximal activity (AC50) under setting [1] is 0.517 µM [rising, partial curve].
Consider `Cc1cccc(C(=O)NCCN2CCOCC2)c1[N+](=O)[O-]`, for which the cell number change amounted to 16.5%.
Regarding `Cc1cc(-c2ccco2)n(CC(=O)NCCCc2ccccc2)n1`, the cell number change worked out at 14.4%. Moreover, the half-maximal activity concentration (AC50) under setting [1] is 0.731 µM [falling, full curve, poor fit].
As to `Cc1cc(Cl)n2c(nc3cc(F)c(F)cc32)c1C#N`, the cell number change was -22%. The AC50 under setting [1] is 29.1 µM [falling, single point].
Take `COc1c(Cl)cc(-c2noc(C)c2C(=O)NCCc2ccc(C)cc2)cc1Cl`: the AC50 reads like this: under setting [2], 2.91 µM [rising, partial curve]; under setting [1], 0.58 µM [rising, partial curve].
For `CCOc1ccccc1N1CCN(C(=O)c2cc(-c3cc(OC)ccc3OC)nc3ccccc23)CC1`, the cell number change was 7.58%.
The same measure, in the same setting: with `O=C(CN1CCN(S(=O)(=O)c2cccc(Br)c2)CC1)N1CCCCC1` the figure was -14.8%.
Take `COc1ccc(C2CC(=O)c3c(C)nc(N4CCN(Cc5ccccc5)CC4)nc3C2)cc1OC` (stereo not drawn): the cell number change was -29%. Moreover, the concentration at half-maximal activity (AC50) under setting [1] was 0.461 µM [rising, partial curve].
Regarding `N/C(=N\OC(=O)c1cccc(F)c1)c1ccccc1`, the cell number change is -30.5%. The half-maximal activity concentration (AC50) under setting [2] is 25.9 µM [falling, single point].
Turning to `COc1ccc(OCC(=O)Nc2nnc(C)s2)cc1`, the cell number change was 24.3%. In addition, the concentration at half-maximal activity (AC50) under setting [1] is 7.31 µM [rising, partial curve].

As a reminder, the AC50 is the midpoint of the concentration-response curve, whichever way the signal moves.
